According to article PMC6305323:
These are yes or no findings as the source states them, for the method shown. For some assays here: Binding seen in cells or lysates may run through a third protein. Some binding calls cover weakened binding; strength is not graded here. For some assays here: Where a sequence is shown, tags or fusion partners need not be part of it.

Tests used:
GFP-SLR1 (rice) = biological target: T1, GFP-SLR1 (rice) (UniProt Q7G7J6); experiment: co-IP; rice protoplasts co-transformed with 6xMyc- and GFP-tagged constructs, 10 h in the dark at 28°C; IP buffer 25 mM Tris-HCl pH 7.5, 150 mM NaCl, 0.5 % Triton X-100, 1 mM EDTA, 1 mM DTT; GFP or Myc antibody and Protein G agarose beads; western blot with the other antibody
T1 sequence: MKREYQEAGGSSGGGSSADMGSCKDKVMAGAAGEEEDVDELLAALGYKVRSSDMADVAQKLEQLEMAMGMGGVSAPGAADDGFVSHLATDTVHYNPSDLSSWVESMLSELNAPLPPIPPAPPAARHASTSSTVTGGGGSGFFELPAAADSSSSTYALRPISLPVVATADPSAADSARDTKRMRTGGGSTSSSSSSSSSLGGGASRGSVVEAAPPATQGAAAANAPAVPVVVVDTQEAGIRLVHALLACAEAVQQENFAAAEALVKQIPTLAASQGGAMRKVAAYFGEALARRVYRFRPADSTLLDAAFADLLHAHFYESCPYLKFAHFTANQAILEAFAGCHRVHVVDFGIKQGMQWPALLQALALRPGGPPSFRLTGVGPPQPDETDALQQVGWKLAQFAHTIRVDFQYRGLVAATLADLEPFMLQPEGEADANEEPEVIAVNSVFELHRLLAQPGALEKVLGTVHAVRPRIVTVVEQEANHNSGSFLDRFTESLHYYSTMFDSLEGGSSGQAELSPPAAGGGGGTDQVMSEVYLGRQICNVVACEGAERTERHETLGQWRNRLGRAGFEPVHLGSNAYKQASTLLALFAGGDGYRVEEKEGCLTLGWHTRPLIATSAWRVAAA

6xMyc-OsJAZ9 (rice) = biological target: T2, 6xMyc-OsJAZ9 (rice) (UniProt Q6ZJU3); experiment: as above
T2 sequence: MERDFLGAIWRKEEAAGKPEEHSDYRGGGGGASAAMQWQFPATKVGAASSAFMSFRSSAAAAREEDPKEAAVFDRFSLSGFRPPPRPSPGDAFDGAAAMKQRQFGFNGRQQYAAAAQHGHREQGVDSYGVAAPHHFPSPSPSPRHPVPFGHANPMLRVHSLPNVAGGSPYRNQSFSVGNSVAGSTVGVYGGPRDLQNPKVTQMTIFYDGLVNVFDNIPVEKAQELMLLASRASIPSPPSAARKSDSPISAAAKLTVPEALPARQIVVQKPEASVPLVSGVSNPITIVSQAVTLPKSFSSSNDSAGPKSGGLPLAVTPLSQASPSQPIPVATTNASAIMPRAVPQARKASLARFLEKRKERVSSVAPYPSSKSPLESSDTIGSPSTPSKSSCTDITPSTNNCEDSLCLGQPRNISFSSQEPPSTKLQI

[1] = biological target: T3, nYFP-SLR1 (rice (Oryza sativa cv. Dongjin)) (UniProt Q7G7J6); experiment: split reporter; BiFC with nYFP and cYFP fusions in onion epidermal cells, tungsten particle bombardment; YFP signal by microscopy
T3 sequence: T1 sequence

[2] = biological target: T4, OsJAZ9 (Jasmonate ZIM-domain protein 9) (rice (Oryza sativa cv. Dongjin)) (UniProt Q6ZJU3); experiment: two-hybrid; Matchmaker Gold (Clontech), Y2H Gold yeast; JAZs as bait in pGBKT7, DELLAs as prey in pGADT7; growth on DDO (-Leu/-Trp) media with 250 ng/mL Aureobasidin A, 5 days in the dark at 30°C
T4 sequence: T2 sequence

B1: 6xMyc-OsJAZ9 (protein, UniProt Q6ZJU3 1-427)
chain: T2 sequence
binding (GFP-SLR1 (rice)): binds

B2: GFP-SLR1 (protein, UniProt Q7G7J6 1-625)
chain: T1 sequence
binding (6xMyc-OsJAZ9 (rice)): binds

B3: GFP-OsbHLH148 (protein, UniProt Q75KV9 1-299)
chain: MQMESYYGAFHADEAAFFFPHHVPASPELPFGLIASPEPEPEPEQAAAEARQSAFQEYGGAVHAGAPAAAGAVTTGGTNIHRRVMDVLGRMGGGGGGGEKGEGEEMEEEEEVPQRRRRGQGADVESSRGFRHMMRERQRREKLSQSYADLYAMVSSRSKGDKNSIVQSAAIYIHELKVARDQLQRRNEELKAQIMGHDEQQPCVTVQFEVDEPSSSIDSMIAALRRLKGMSVKARGIRSSMSGNRLWTEMNVETTIAACEVEKAVEEALKEVERNQPDSDAPFPGSKGWTQTSHVQNVF
binding (6xMyc-OsJAZ9 (rice)): binds

B4: OsJAZ9-cYFP (protein, UniProt Q6ZJU3 1-427)
chain: T2 sequence
binding [1]: binds

B5: SLR1G (domain or fragment, UniProt Q7G7J6 232-621)
chain: VDTQEAGIRLVHALLACAEAVQQENFAAAEALVKQIPTLAASQGGAMRKVAAYFGEALARRVYRFRPADSTLLDAAFADLLHAHFYESCPYLKFAHFTANQAILEAFAGCHRVHVVDFGIKQGMQWPALLQALALRPGGPPSFRLTGVGPPQPDETDALQQVGWKLAQFAHTIRVDFQYRGLVAATLADLEPFMLQPEGEADANEEPEVIAVNSVFELHRLLAQPGALEKVLGTVHAVRPRIVTVVEQEANHNSGSFLDRFTESLHYYSTMFDSLEGGSSGQAELSPPAAGGGGGTDQVMSEVYLGRQICNVVACEGAERTERHETLGQWRNRLGRAGFEPVHLGSNAYKQASTLLALFAGGDGYRVEEKEGCLTLGWHTRPLIATSAWR
binding [2]: binds
